Measurements published in US20150252117A1 (Genentech, published 2015).
These are yes or no findings as the source states them, for the method shown. Some results given as binding are weak or reduced against the parent protein; the word gives no strength. One block for each binder: values may come before it.

Chains of the proteins cited; added tags and fusions are not shown. Lines headed by an entry give the natural chain unless they say otherwise; changes in a name come on top.
UniProt P78504: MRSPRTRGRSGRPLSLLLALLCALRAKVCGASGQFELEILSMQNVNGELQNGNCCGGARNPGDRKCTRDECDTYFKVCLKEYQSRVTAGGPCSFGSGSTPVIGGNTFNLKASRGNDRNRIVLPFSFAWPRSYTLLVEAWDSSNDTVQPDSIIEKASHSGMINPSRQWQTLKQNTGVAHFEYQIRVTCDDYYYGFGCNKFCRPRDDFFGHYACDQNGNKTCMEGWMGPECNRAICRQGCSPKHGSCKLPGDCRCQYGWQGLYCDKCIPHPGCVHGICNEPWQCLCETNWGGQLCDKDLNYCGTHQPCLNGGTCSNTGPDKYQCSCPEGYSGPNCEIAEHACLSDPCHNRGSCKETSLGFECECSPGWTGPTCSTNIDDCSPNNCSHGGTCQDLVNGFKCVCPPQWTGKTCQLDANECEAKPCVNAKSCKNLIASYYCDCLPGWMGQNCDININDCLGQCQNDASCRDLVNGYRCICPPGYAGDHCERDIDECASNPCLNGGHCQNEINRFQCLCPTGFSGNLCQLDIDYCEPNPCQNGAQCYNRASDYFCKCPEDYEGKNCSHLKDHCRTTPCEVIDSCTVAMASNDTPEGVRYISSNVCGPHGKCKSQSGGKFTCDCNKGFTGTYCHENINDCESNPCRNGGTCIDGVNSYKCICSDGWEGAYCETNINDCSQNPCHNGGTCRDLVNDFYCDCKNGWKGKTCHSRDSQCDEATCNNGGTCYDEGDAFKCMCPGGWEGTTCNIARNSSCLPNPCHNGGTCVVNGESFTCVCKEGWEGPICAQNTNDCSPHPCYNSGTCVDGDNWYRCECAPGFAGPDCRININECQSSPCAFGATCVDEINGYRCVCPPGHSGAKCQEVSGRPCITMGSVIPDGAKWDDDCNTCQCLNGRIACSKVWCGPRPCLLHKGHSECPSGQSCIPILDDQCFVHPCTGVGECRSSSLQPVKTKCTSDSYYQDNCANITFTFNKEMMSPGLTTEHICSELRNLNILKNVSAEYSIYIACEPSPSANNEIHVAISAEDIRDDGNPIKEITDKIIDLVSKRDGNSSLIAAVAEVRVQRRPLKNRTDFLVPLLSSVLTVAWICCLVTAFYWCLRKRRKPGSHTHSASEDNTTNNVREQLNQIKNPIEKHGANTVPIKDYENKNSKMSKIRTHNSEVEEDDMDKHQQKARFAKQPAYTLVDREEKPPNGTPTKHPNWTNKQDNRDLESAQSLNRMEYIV

How the values were obtained:
[1] = target: Human Jag1-DSL-EGF1-4 (human) (UniProt P78504); assay: SPR (BIAcore-3000)
[2] = target: Human Jag1-DSL-EGF1-4 (human) (UniProt P78504); assay: ELISA (screening, FIG. 8)
[3] = target: Human Jag1-DSL-EGF1-4 (human) (UniProt P78504); assay: ELISA on human Jagged1 (Jag-1 bars), OD450 nm
[4] = target: T1, Human Jag2-DSL-EGF1-4 (human, UniProt Q9Y219 24-388); assay: ELISA (screening, FIG. 8)
T1 construct: also called human Jagged2; hJag2
T1 sequence: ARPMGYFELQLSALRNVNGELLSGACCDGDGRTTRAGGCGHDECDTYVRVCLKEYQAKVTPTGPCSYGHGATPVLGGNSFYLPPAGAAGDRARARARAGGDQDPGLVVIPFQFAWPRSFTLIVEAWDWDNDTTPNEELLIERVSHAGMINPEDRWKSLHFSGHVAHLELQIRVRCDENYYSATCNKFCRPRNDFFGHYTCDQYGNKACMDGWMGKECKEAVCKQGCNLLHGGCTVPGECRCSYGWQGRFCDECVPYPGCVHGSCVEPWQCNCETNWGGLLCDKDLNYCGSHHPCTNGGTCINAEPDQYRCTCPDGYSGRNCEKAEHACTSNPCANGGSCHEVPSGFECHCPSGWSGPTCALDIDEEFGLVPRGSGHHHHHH

[5] = target: T2, Murine Jag2-DSL-EGF1-4 (mouse, UniProt Q9QYE5 27-388); assay: ELISA (screening, FIG. 8)
T2 construct: also called murine Jagged2; Mouse Jag2
T2 sequence: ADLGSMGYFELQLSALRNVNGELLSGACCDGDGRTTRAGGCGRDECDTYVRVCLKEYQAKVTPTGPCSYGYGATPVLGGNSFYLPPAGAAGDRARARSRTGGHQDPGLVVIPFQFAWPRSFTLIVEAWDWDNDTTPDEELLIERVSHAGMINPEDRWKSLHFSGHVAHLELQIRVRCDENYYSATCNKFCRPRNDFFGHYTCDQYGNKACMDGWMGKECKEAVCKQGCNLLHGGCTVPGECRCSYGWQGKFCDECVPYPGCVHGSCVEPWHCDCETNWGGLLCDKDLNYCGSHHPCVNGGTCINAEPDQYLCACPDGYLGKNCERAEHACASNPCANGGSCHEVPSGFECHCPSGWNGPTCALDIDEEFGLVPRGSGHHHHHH

[6] = target: T1, Human Jag2-DSL-EGF1-4; assay: ELISA on human Jagged2 (Jag-2 bars), OD450 nm
[7] = target: Human Jag1-DSL-EGF1-4 (human) (UniProt P78504); assay: SPR (BIAcore T200)
[8] = target: Human Jag1-DSL-EGF1-4 (human) (UniProt P78504); assay: ELISA, ligand coated at 1 µg/ml, IgG titrated
[9] = target: Human Jag1-DSL-EGF1-4 (human) (UniProt P78504); assay: ELISA, Notch ligand coated at 1 ug/ml, serial 3-fold dilutions of IgG, anti-human Fab-peroxidase, A630 [left panel, A-2]
[10] = target: T3, human Delta-like 1 (DSL-EGF1-4 fragment) (human, UniProt O00548 18-368, limits assumed); assay: SPR (BIAcore T200)
T3 construct: domain: DSL-EGF1-4; Recombinant purified Notch ligand; also called human DLL1; hDLL1
T3 sequence (looked up): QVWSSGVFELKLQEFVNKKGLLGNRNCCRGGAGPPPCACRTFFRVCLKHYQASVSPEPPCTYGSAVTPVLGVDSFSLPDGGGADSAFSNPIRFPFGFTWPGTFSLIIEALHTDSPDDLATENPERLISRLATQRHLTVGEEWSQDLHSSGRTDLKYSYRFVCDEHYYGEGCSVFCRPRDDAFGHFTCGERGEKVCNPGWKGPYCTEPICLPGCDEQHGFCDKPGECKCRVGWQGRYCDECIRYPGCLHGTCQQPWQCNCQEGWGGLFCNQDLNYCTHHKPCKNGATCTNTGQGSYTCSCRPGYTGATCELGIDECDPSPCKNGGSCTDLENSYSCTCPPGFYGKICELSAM

[11] = target: murine Delta-like 1 (DSL-EGF1-4 fragment) (mouse) (UniProt Q61483); assay: SPR (BIAcore T200)

- binding [1]: binds
- binding [7]: binds
- binding [8]: binds
- binding [9]: binds
B3: Antibody A-2 (antibody, human IgG1, V domains shown)
VH: EVQLVESGGGLVQPGGSLRLSCAASGFTFSNYGIHWVRQAPGKGLEWVGWITGNGGYSDYADSVKGRFTISADTSKNTAYLQMNSLRAEDTAVYYCARAGSWFAYWGQGTLVTVSS
VL: DIQMTQSPSSLSASVGDRVTITCRASQDVSTAVAWYQQKPGKAPKLLIYSASFLYSGVPSRFSGSGSGTDFTLTISSLQPEDFATYYCQQSYTTPPTFGQGTKVEIK
notes: also called anti-Jagged1 antibody A-2

- binding [10]: binds
- binding [11]: binds
B4: Antibody B-3 (antibody, human IgG1, V domains shown)
VH: EVQLVESGGGLVQPGGSLRLSCAASGFTFTSYDIHWVRQAPGKGLEWVGGISPADGDTDYANSVKGRFTISADTSKNTAYLQMNSLRAEDTAVYYCARNDYDVRFVGSGMDYWGQGTLVTVSS
VL: DIQMTQSPSSLSASVGDRVTITCRASQDVSTAVAWYQQKPGKAPKLLIYSASFLYSGVPSRFSGSGSGTDFTLTISSLQPEDFATYYCQQSFTAPPTFGQGTKVEIK
notes: also called anti-Jagged2 antibody B-3; anti-Jag2 B-3

More lines, now with the values behind:

B1: Antibody A (antibody, human IgG1, V domains shown)
VH: EVQLVESGGGLVQPGGSLRLSCAASGFTFSNYGIHWVRQAPGKGLEWVGWITPDGGYTDYADSVKGRFTISADTSKNTAYLQMNSLRAEDTAVYYCARAGSWFAYWGQGTLVTVSS
VL: DIQMTQSPSSLSASVGDRVTITCRASQDVSTAVAWYQQKPGKAPKLLIYSASFLYSGVPSRFSGSGSGTDFTLTISSLQPEDFATYYCQQSYTTPPTFGQGTKVEIK
notes: Only the variable domains are tied to the tested antibody; also called parent antibody A; anti-Jagged1 antibody A
- binding [1]: binds
- binding [2]: binds
- binding [3]: binds

B2: Antibody B (antibody, V domains shown)
VH: EVQLVESGGGLVQPGGSLRLSCAASGFTFTSYDIHWVRQAPGKGLEWVGGISPADGDTDYANSVKGRFTISADTSKNTAYLQMNSLRAEDTAVYYCARNDYDVRSVGSGMDYWGQGTLVTVSS
VL: DIQMTQSPSSLSASVGDRVTITCRASQDVSTAVAWYQQKPGKAPKLLIYSASFLYSGVPSRFSGSGSGTDFTLTISSLQPEDFATYYCQQSYTTPPTFGQGTKVEIK
notes: Anti-Jagged2 antibody, human IgG1; also called parental antibody of antibody B-3
- binding [4]: binds
- binding [5]: binds
- binding [6]: binds
